Source: paper PMC7819943, “Rice protein-binding microarrays: a tool to detect cis-acting elements near promoter regions in rice”
The other results are listed elsewhere or left out.

Amino acid sequences for entries named in this document (tags omitted).
UniProt Q0JBA9, entry or part of it: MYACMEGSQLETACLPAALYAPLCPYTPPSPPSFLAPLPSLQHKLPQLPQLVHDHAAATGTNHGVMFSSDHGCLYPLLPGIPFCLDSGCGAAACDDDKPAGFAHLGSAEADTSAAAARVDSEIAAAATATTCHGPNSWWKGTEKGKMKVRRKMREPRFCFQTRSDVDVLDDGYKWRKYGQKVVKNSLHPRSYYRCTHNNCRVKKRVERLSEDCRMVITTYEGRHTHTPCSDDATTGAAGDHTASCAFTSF

target: OsWRKY34 (Oryza sativa, UniProt Q0JBA9 1-250); assay: protein-binding microarray (RPBM); PBS, 2% BSA, 51.3 ng/ul salmon testes DNA, 50 uM zinc acetate, 200 nM TF, 25 C, 1 h; high values mean tight binding; conditions: protein: recombinant; tags: N-terminal polyhistidine and DsRed monomer fusion (pET32a); label: CyDye5-dUTP incorporated in the synthesized complementary strand; 3' TTTTT single-stranded linker to array surface; dsDNA, one strand shown
Method in brief: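 The binding signal is fluorescence intensity per feature, in arbitrary units, read on an Axon 4000B scanner. Polyhistidine- and DsRed-tagged transcription factors (N-terminal fusions) from E. coli BL21-CodonPlus were purified on Ni–NTA and applied at 200 nM for 1 h at 25 °C to a double-stranded, BSA-blocked custom Agilent array in buffer with 50 µM zinc acetate.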

Row | Sequence | binding signal
1 | TACCCGCAGCCACCCGCCGCTGACGGTCAACCCACCTTCGCGGAGTCACCTAGTGCAG | 8150 fluorescence intensity (a.u.)
2 | CTCTCTCGTCTCTCTCTCTCTCTCTCACTCTCAGCTCTCTCGGAGTCACCTAGTGCAG | 8360 fluorescence intensity (a.u.)
3 | TCTCGTCCGACGCTTCAACCCGCACCGATCCTGCGCCACCCGGAGTCACCTAGTGCAG | 8740 fluorescence intensity (a.u.)
4 | TCTCCACTCCTACTTCCCGGTCTCGAGCTACACCAAACACCGGAGTCACCTAGTGCAG | 8710 fluorescence intensity (a.u.)
5 | TTCTTAATACTTATTGTTCTATTGTTCTAGTAGTCCACCGCGGAGTCACCTAGTGCAG | 11500 fluorescence intensity (a.u.)
6 | TCTTATTCTTAGACTCGTTAATGCATTTTTATATTTTACACGGAGTCACCTAGTGCAG | 10200 fluorescence intensity (a.u.)
7 | TGACGATGGCCCATCTTTTCCTGTTCAATCTCATCCGTCTCGGAGTCACCTAGTGCAG | 8270 fluorescence intensity (a.u.)
8 | GATGTCGGTAGTTGGCTTTCTTTTTTGTTGCTCGGACTGACGGAGTCACCTAGTGCAG | 8560 fluorescence intensity (a.u.)
9 | CTTGTTCTTGTTCTTGTTCTTGTTGCAAAGATTCGAGAGACGGAGTCACCTAGTGCAG | 8270 fluorescence intensity (a.u.)
10 | GCCTTCATTTCCACCCACTTGCCAACATCCATCTTTTCCGCGGAGTCACCTAGTGCAG | 9910 fluorescence intensity (a.u.)
11 | AACCGAAATCACTTTGGCAGCATGTTTTCCTCTGTAACCACGGAGTCACCTAGTGCAG | 9350 fluorescence intensity (a.u.)
12 | AAAGATTACTTCTCAGATCATGCCCTATTCAGACTATTTTCGGAGTCACCTAGTGCAG | 8570 fluorescence intensity (a.u.)
13 | CGCACTCACTGCCGACGCCATCCTCGATCTCCCTCGCACCCGGAGTCACCTAGTGCAG | 8540 fluorescence intensity (a.u.)
14 | TCTTGCTGGTACCAATTAACATGGGTATGTTTAATTTGCTCGGAGTCACCTAGTGCAG | 8230 fluorescence intensity (a.u.)
15 | GCCCACTCGTCACTGACTCTGTACTAGTACCCACGCCACGCGGAGTCACCTAGTGCAG | 13900 fluorescence intensity (a.u.)
16 | AGCCTGTTCACTTTGATGCCATTTTCTGATAAAGTTGCTACGGAGTCACCTAGTGCAG | 9600 fluorescence intensity (a.u.)
17 | ATCTATTACAATCATCTCGATTTTAGTTTTTCTAGTTCCTCGGAGTCACCTAGTGCAG | 8920 fluorescence intensity (a.u.)
18 | AATCGTTTTCTTTCTTGTCTTCAAACTTATTTTCCCGTTTCGGAGTCACCTAGTGCAG | 9600 fluorescence intensity (a.u.)
19 | CTGATTTCTTAATTTCCGGCTTCTAATTTGTTTTTCAATTCGGAGTCACCTAGTGCAG | 10900 fluorescence intensity (a.u.)
20 | CTCGCCCTCAACTCCGCCCGCGTCTCCGCCGCCTTCCACGCGGAGTCACCTAGTGCAG | 10500 fluorescence intensity (a.u.)
21 | CGCGCCGCCGCTCTCTCTCTCTCTCTCTCTCTCTCTCTCTCGGAGTCACCTAGTGCAG | 8820 fluorescence intensity (a.u.)

Row | Sequence | binding signal
22 | GGATTGATAGTCTTGAGGAGGTTCTTGTTCAGCTTTTTAGCGGAGTCACCTAGTGCAG | 9440 fluorescence intensity (a.u.)
23 | TTGTCCTTCGGTCAGCACCGACGCCGCCGTCTCGCTCGCTCGGAGTCACCTAGTGCAG | 8210 fluorescence intensity (a.u.)
24 | ATCCAACTGGTCCAACTCCTCCAATCGTTTGCTTCTTCTTCGGAGTCACCTAGTGCAG | 8960 fluorescence intensity (a.u.)
25 | TTAGCTTCACCCCTAGTGTTCACAATTACGGCTAACTATTCGGAGTCACCTAGTGCAG | 8750 fluorescence intensity (a.u.)
26 | CACACATAATTCCATCACATCGTTTCAATTTTAATGAAACCGGAGTCACCTAGTGCAG | 8130 fluorescence intensity (a.u.)
27 | GTGACTCTTCTGTCCACTGCACACGCCGTTTTGAAATTTCCGGAGTCACCTAGTGCAG | 10600 fluorescence intensity (a.u.)
28 | CCACATTTTCTGTTCCTTTGCAGCTGAGTTACTTTTATCACGGAGTCACCTAGTGCAG | 9570 fluorescence intensity (a.u.)
29 | TGGTACTGTAGCGGTGCTCTTTCTTTGGTGGGTGCCACGTCGGAGTCACCTAGTGCAG | 8250 fluorescence intensity (a.u.)
30 | GTCAGCCCCGTCGTCGCCGGTCCGTCGCCGCCCGCGTCAGCGGAGTCACCTAGTGCAG | 8310 fluorescence intensity (a.u.)
31 | TCTCATGCATTGCCTCGTTTTTCTCTATAGACTATCTATACGGAGTCACCTAGTGCAG | 11300 fluorescence intensity (a.u.)
32 | AAAACACCAAATTAGTTTTATTAAAACTAACTTTCAAATACGGAGTCACCTAGTGCAG | 11900 fluorescence intensity (a.u.)
33 | ACTGAGTTGTGTTTGTATTTGTAGAGGGATGAGGTTGTAGCGGAGTCACCTAGTGCAG | 8260 fluorescence intensity (a.u.)
34 | CTTCTTCTTCTTCTCCAAGCCGCCGCCTCGCATTAACTCACGGAGTCACCTAGTGCAG | 11900 fluorescence intensity (a.u.)
35 | CCACACCGCATCGTCATCTACACATCTCCACCTCCCGCGGCGGAGTCACCTAGTGCAG | 8910 fluorescence intensity (a.u.)
36 | TCTTCTTGTGTTGTGCTTGTGCCTCCTCATTATTAATATCCGGAGTCACCTAGTGCAG | 9690 fluorescence intensity (a.u.)
37 | AGTACTCGAATGCATCCCGGGCGTCCTCGCCATGATCGACCGGAGTCACCTAGTGCAG | 8260 fluorescence intensity (a.u.)
38 | GGTGTGTTTTTCTCATTATTTTATTTCTTAAGGTTGAACCCGGAGTCACCTAGTGCAG | 8660 fluorescence intensity (a.u.)
39 | TACCTCTCTTCTCTTCTCCAATCTCTATCTATGTCTTCTTCGGAGTCACCTAGTGCAG | 8640 fluorescence intensity (a.u.)
40 | GGCTTCTTTTTCGCTTGCCATTCGCGTGGAGGCGTTTCGACGGAGTCACCTAGTGCAG | 8030 fluorescence intensity (a.u.)
41 | TCGTCCCTATTAGGATAGTACTAGATTTTACCTTACTTTTCGGAGTCACCTAGTGCAG | 8240 fluorescence intensity (a.u.)
42 | CCTCTCTCTCTCTCTCTCTCTCCTCTGCCTTCTCCGAGAACGGAGTCACCTAGTGCAG | 9720 fluorescence intensity (a.u.)

Some of the entries so far, as labelled records:
ACTGAGTTGTGTTTGTATTTGTAGAGGGATGAGGTTGTAGCGGAGTCACCTAGTGCAG
  binding signal = 8260 fluorescence intensity (a.u.)
CTTCTTCTTCTTCTCCAAGCCGCCGCCTCGCATTAACTCACGGAGTCACCTAGTGCAG
  binding signal = 11900 fluorescence intensity (a.u.)
CCACACCGCATCGTCATCTACACATCTCCACCTCCCGCGGCGGAGTCACCTAGTGCAG
  binding signal = 8910 fluorescence intensity (a.u.)
